The other results are listed elsewhere or left out. These are further read-outs of the screen, such as a control signal, another cell line or another target. No call is given for them. The list favours compounds with an active or inconclusive main result. Words in brackets tell the shape of the fitted curve; partial curves, single points and poor fits give uncertain potencies.

The assay in a line: qHTS Assay for Lipid Storage Modulators in Drosophila S3 Cells.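 On cell number change: cells counted by Cell Tracker Red CMTPX staining in the red channel.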 The conditions noted are these: BODIPY lipid droplet fluorescence, 18-24 h; for cell number change: measured here: cell count max response, cells fed with added oleic acid. In outline: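 Drosophila S3 cells got compounds at several concentrations plus oleic acid (400 uM solution). Laser-scanning cytometry with 488 nm excitation read lipid droplets at 500-530 nm and cells at 575-640 nm. Percent activity was relative to 20 uM Triacsin C.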

[1] abbreviates: measured here: lipid fluorescence (Fed channel) AC50, cells fed with added oleic acid.
Where [2] appears, read: measured here: cell number channel AC50, cells fed with added oleic acid.

As to `c1ccc(N2OCC3Cn4c(nc5ccccc54)C32)cc1` (stereo not drawn), the cell number change came to 10.5%. For the same compound, under setting [1], the AC50 was 20.6 µM [rising, partial curve].

`CN(C(=O)CSC1=NC2C(N=N1)c1cc(Br)ccc1N2C)C1CCCCC1` (stereo not drawn): the cell number change is -8.98%.

Turning to `Cc1cc(=O)cc(C)n1-c1ccc(Cl)cc1`, the cell number change came out at 173%. In addition, under setting [2], the AC50 was 16.4 µM [rising, partial curve].

Regarding `CC1Cc2cccc3c(O)c(C(=O)c4nn[nH]n4)c(=O)n1c23` (stereo not drawn), the cell number change is -0.79%. Moreover, the concentration at half-maximal activity (AC50) under setting [2] is 0.103 µM [falling, single point]. Besides, the AC50 under setting [1] is 0.326 µM [falling, full curve, poor fit].

Take `CCOc1ccc(C)cc1S(=O)(=O)Nc1ccc(Cl)cn1`: the cell number change worked out at 56.7%. Also, under setting [2], the AC50 is 0.731 µM [rising, full curve]. Besides, the AC50 under setting [1] was 20.6 µM [rising, partial curve].

In the case of `O=C(Nc1ccc(F)cc1F)c1cccnc1`, the cell number change was determined as 9.03%. Moreover, the AC50 under setting [2] was 0.103 µM [rising, full curve]. In addition, the concentration at half-maximal activity (AC50) under setting [1] is 6.51 µM [rising, single point].

With `Cc1cccc(OCCN2CCOCC2)c1C`, the cell number change is -1.66%. For the same compound, the AC50 under setting [1] was 0.103 µM [rising, full curve, poor fit].

For the compound `C=CCNC(=O)c1ccccc1NC(=O)c1cccc2ccccc12`, the cell number change was determined as 45.8%. Further, the AC50 under setting [2] was 0.184 µM [rising, partial curve, poor fit]. Also, the AC50 under setting [1] is 3.26 µM [rising, partial curve, poor fit].

Turning to `Cc1cc(C(=O)N2CCOCC2)c(C)o1`, the cell number change is -5.73%. For the same compound, the AC50 under setting [2] was 0.00651 µM [falling, full curve, poor fit]. The concentration at half-maximal activity (AC50) under setting [1] was 0.58 µM [falling, single point].

Turning to `Nc1nnc(SCC(=O)OCC(=O)NC23CC4CC(CC(C4)C2)C3)s1`, the cell number change is 6.91%. Besides, the AC50 under setting [2] was 6.51 µM [falling, partial curve, poor fit]. Further, the half-maximal activity concentration (AC50) under setting [1] is 6.51 µM [falling, partial curve, poor fit].

On to `O=C(O)CSc1nnc(-c2ccc3c(c2)OCO3)n1-c1ccccc1`, for which the cell number change is 4.14%.

As for `CCN(CC)S(=O)(=O)c1ccc(C(=O)NCC(=O)NC2CC2)cc1`, the cell number change was -0.858%. Moreover, under setting [1], the AC50 was 20.6 µM [falling, partial curve, poor fit].

On to `CCCNC(=O)C(Cc1ccc(OC)cc1)NC(=O)c1ccc(Cl)cc1` (stereo not drawn), for which the cell number change was -50.3%. Under setting [2], the AC50 was 16.4 µM [falling, single point]. The AC50 under setting [1] is 20.6 µM [falling, single point].

For the compound `COc1ccccc1OCC(=O)N(Cc1nnc(-c2ccccc2Cl)o1)C1CC1`, the cell number change amounted to 19.2%. Besides, the AC50 under setting [1] was 29.1 µM [falling, single point].

Consider `CCc1cccc2c(C(=O)COC(=O)c3ccc([N+](=O)[O-])s3)c[nH]c12`, for which the cell number change was -1.7%. Also, the AC50 under setting [1] was 20.6 µM [falling, partial curve].

Regarding `O=C(C1=C(O)C(=O)N(CCN2CCOCC2)C1c1cccc(O)c1)c1cc2ccccc2o1` (stereo not drawn), the cell number change is 21.8%. Moreover, under setting [1], the concentration at half-maximal activity (AC50) was 23.1 µM [rising, single point].

For the compound `Cc1cc(C=O)c(C)n1-c1cc(C(=O)O)cc(C(=O)O)c1`, the cell number change was found to be 12.4%.

On to `Cc1ccc(S(=O)(=O)Nc2ccc3c(c2)n(C)c(=O)n3C)c(C)c1`, for which the cell number change was -10.8%.

Turning to `Cc1cc(C(=O)OCC(=O)NC(C)c2ccccc2)c(C)o1` (stereo not drawn), the cell number change turned out to be 132%. Also, under setting [2], the AC50 is 4.61 µM [rising, full curve]. Further, under setting [1], the AC50 was 4.11 µM [rising, partial curve].

As for `CCOc1cc(C(=S)N2CCOCC2)ccc1OC`, the cell number change is -21.6%. Besides, the AC50 under setting [1] is 16.4 µM [falling, partial curve].

As to `COc1ccc(CCNC(=O)C2CCC(CNS(=O)(=O)c3ccc(F)cc3)CC2)cc1OC` (stereo not drawn), the cell number change came out at 20.7%. For the same compound, under setting [2], the concentration at half-maximal activity (AC50) is 0.00461 µM [falling, full curve, poor fit].

Consider `S=C1NC[C@H](CC2CCCCC2)N1CCc1cccc2ccccc12`, for which the cell number change is 19.1%. Under setting [1], the AC50 was 0.326 µM [rising, partial curve, poor fit].

`Cc1ccc(S(=O)(=O)Nc2ccc3cn[nH]c3c2)c(C)c1`: the cell number change was -4.92%. Besides, under setting [2], the AC50 is 4.61 µM [rising, partial curve, poor fit]. The AC50 under setting [1] was 6.51 µM [rising, single point].

Regarding `CCOc1cc(/C=N/NC(=O)c2ccncc2)cc(Cl)c1OS(C)(=O)=O`, the cell number change came out at 2.69%.

As for `O=C(c1cccs1)N1CCC(c2nc3c(nnn3Cc3c(Cl)cccc3Cl)c(=O)[nH]2)CC1`, the cell number change came out at 5.13%. Besides, the AC50 under setting [1] was 0.58 µM [falling, partial curve].

Regarding `COc1ccc(C)cc1NC(=S)N1CC(C)OC(C)C1` (stereo not drawn), the cell number change worked out at 4.86%.

For `COc1ccc(CNC(=O)C2CCN(S(=O)(=O)c3ccc4c(c3)C(C)(C)C(=O)N4C)CC2)cc1`, the cell number change is -1.2%.

As to `O=C(Cn1c(NCCO)nc2ccccc21)Nc1ccc2c(c1)OCCCO2`, the cell number change was determined as 21%.

For `Cc1cc(C)nc(N/N=C/c2ccccc2OCc2ccc(Cl)cc2)n1`, the AC50 under setting [1] was 0.146 µM [rising, full curve, poor fit].

Take `O=C(COc1ccccc1)NCC(=O)Nc1ccncc1`: the cell number change turned out to be 112%. Also, the AC50 under setting [1] was 29.1 µM [rising, single point].

Consider `Cc1ccccc1CC(=O)NCCN1CCOCC1`, for which the cell number change amounted to 1.66%. For the same compound, the half-maximal activity concentration (AC50) under setting [1] was 0.58 µM [rising, single point].

Turning to `CCOc1ccc(N(CC(=O)NCc2ccccc2)S(C)(=O)=O)cc1`, the cell number change came out at 2.74%. For the same compound, the AC50 under setting [2] is 0.731 µM [falling, full curve]. For the same compound, under setting [1], the AC50 is 0.164 µM [falling, partial curve].

`CC1Cc2ccccc2N1C(=O)COc1ccc2c(c1)OCO2` (stereo not drawn): the cell number change stood at 45.8%. The AC50 under setting [2] was 0.00461 µM [rising, full curve, poor fit]. In addition, the AC50 under setting [1] was 0.00461 µM [rising, full curve, poor fit].

With `CC(NC(=O)CCNS(=O)(=O)c1cccc2nonc12)c1ccccc1` (stereo not drawn), the cell number change came out at 17.9%. Also, under setting [1], the concentration at half-maximal activity (AC50) was 1.03 µM [rising, full curve].

With `O=C(c1ccco1)N1CCN(C(=O)c2ccccc2[N+](=O)[O-])CC1`, the cell number change is -46.5%. Also, the AC50 under setting [2] is 0.116 µM [falling, full curve].

For `CC1CCCC(C)N1C(=O)COC(=O)Cn1cnc2c1c(=O)n(C)c(=O)n2C` (stereo not drawn), the cell number change stood at 8.08%.

For the compound `Cc1ccc(S(=O)(=O)N2CCN(S(=O)(=O)c3c(C)n[nH]c3C)CC2)cc1C`, the cell number change is -28.1%.

As for `O=C(CS(=O)(=O)c1ccccc1)Nc1nc2ccccc2s1`, the cell number change is -3.69%. Further, under setting [1], the AC50 was 1.46 µM [rising, full curve, poor fit].

As for `Cn1c(Cn2cnc3ccccc32)nnc1SCc1ccccc1`, the cell number change was -49.5%. In addition, the AC50 under setting [2] is 29.1 µM [falling, single point]. Also, the AC50 under setting [1] is 29.1 µM [rising, single point].

In the case of `COCCn1c(=O)[nH]c2cc(C(=O)NCc3ccccc3)ccc2c1=O`, the cell number change was determined as 0.772%. The AC50 under setting [2] was 6.51 µM [falling, single point]. Besides, the half-maximal activity concentration (AC50) under setting [1] was 6.51 µM [falling, single point].

On to `Cc1cccc(NC(=O)CSc2nnc([C@@H]3CCCN3C(=O)OC(C)(C)C)o2)c1C`, for which the cell number change came to 1.14%. Moreover, the AC50 under setting [1] is 1.46 µM [rising, partial curve, poor fit].

Consider `O=C(COc1ccc(S(=O)(=O)N2CCCC2)cc1)N1CCN(c2ccccc2F)CC1`, for which the AC50 under setting [1] was 29.1 µM [falling, single point].

With `Cc1cccc(-c2nnc3sc(-c4ccccc4)nn23)c1`, the cell number change was -3.42%.

Regarding `COc1cc(NC(=O)c2ccco2)ccc1NC(=O)c1ccccc1Cl`, the cell number change worked out at 7.28%.

Consider `COc1ccc(N(Cc2cc(=O)[nH]c3ccccc23)C(=O)c2ccco2)cc1`, for which the cell number change amounted to 44.4%. Besides, under setting [2], the AC50 is 20.6 µM [rising, single point].

Regarding `CN1CCN(C(=O)c2cc3nc(-c4ccccc4)cc(C(F)(F)F)n3n2)CC1`, under setting [2], the AC50 was 0.461 µM [falling, partial curve, poor fit].

As to `N#Cc1c(-c2ccccc2)oc(=O)c2ccccc12`, the cell number change was 11.7%.

`COc1ccc2cc(C(=O)N3CCC(Cc4ccccc4)CC3)[nH]c2c1`: the AC50 reads like this: under setting [2], 0.82 µM [rising, full curve, poor fit]; under setting [1], 6.51 µM [rising, single point].

Take `CC(C)OCCCNC(=O)c1cc(-c2cccnc2)nc2ccccc12`: the cell number change was -7.8%. Moreover, the AC50 under setting [2] is 2.91 µM [rising, single point]. The AC50 under setting [1] is 6.51 µM [rising, single point].

For the compound `COc1ccc(NC(=O)CN2C(=O)NC(C)(c3ccccc3)C2=O)cc1Cl` (stereo not drawn), the cell number change is -5.41%. Besides, under setting [1], the AC50 is 0.164 µM [rising, full curve].

Consider `COc1cccc(/C=N/Nc2snc(SC)c2C#N)c1`, for which the cell number change was -19%.

Take `CCOc1cc(CNc2ccc(N3CCCCC3)cc2)cc(Br)c1OCC(=O)NC(C)(C)C`: the cell number change was -20.6%. In addition, the AC50 under setting [1] was 6.51 µM [rising, single point].

`Cc1onc(-c2ccccc2)c1C(=O)Nc1ncc([N+](=O)[O-])s1`: the cell number change was -24.4%. Besides, the concentration at half-maximal activity (AC50) under setting [1] is 0.0731 µM [rising, partial curve, poor fit].

On to `COc1ccc(OC)c(C(c2nnnn2C2CCCC2)N2CCN(c3ccccc3)CC2)c1` (stereo not drawn), for which the cell number change was 18.9%. Moreover, the AC50 under setting [1] is 4.11 µM [rising, full curve].

For the compound `Cc1oc(-c2ccc(Cl)cc2)nc1CS(=O)CC(=O)NCc1cccs1` (stereo not drawn), the cell number change is -9.76%. Also, the AC50 under setting [1] is 6.51 µM [rising, single point].

Regarding `Cc1cnc(C(=O)Oc2cccc(Cl)c2Cl)cn1`, the cell number change is -31.7%. Also, the AC50 under setting [2] is 0.231 µM [falling, full curve, poor fit].

`CCCCN(Cc1ccccc1)S(=O)(=O)c1ccc2[nH]c(=O)oc2c1`: the cell number change was -44.7%. Moreover, the AC50 under setting [1] is 7.31 µM [falling, partial curve, poor fit].

As for `Cc1cccc(NC(=O)c2ccccc2OCC(=O)c2ccccc2)c1`, the cell number change was found to be 38.9%. Also, the AC50 under setting [2] was 2.59 µM [rising, partial curve]. The concentration at half-maximal activity (AC50) under setting [1] is 5.17 µM [rising, partial curve].

For `COc1ccc(OCCCC(=O)Nc2cccc(S(=O)(=O)N3CCCCCC3)c2)cc1`, the cell number change is -21.7%. Also, the AC50 under setting [2] is 0.651 µM [falling, full curve, poor fit].

As to `Cc1noc(C)c1COc1cccc(C(=O)Nc2ccccc2N2CCOCC2)c1`, the cell number change is 8.91%. Under setting [1], the AC50 is 3.26 µM [rising, single point].

The values are drawn from PubChem BioAssay AID2685 (National Center for Advancing Translational Sciences (NCATS), 2010).
